Consider 1 substance from article PMC12305565.

The target of the assay is T1, C-C motif chemokine receptor 1 (CCR1) (human (endogenous in ESCC cells)) (UniProt P32246).
T1 sequence: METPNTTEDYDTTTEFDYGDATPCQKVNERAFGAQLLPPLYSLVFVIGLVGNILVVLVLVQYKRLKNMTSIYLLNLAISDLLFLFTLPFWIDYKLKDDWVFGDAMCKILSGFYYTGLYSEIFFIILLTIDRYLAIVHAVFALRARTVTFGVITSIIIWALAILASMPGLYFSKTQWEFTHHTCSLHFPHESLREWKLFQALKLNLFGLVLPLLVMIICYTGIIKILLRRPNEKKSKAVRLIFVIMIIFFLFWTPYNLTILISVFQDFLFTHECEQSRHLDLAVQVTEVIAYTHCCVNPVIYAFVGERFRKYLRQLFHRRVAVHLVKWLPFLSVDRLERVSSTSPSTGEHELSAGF
The experiment in a line: co-IP; in ESCC cells; bait, antibodies and buffer not told in the text shown (Figure S2A-S2B).

No constants are given. Whether binding was seen depends on the method and setting. In cells and extracts the contact can be indirect. Binding calls can cover weak binding; strength is not graded here.

Turning to “chemokine (C-C motif) ligand 15 (CCL15) (human (endogenous in ESCC cells))”, the binding result was “binds”.
